Data as given in PubChem BioAssay AID1224827 (NIAID, 2016).
Shown is one part, drawn at random, of about 3,800 reagents tested. Of all reagents, about 2,200 (57%) are marked active. 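Active means a strong reporter change in either direction; calls are per siRNA, not per gene; qiagen siRNAs gave weaker effects.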 The numbers tell different reagents against one gene apart.

Purpose: 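Identify regulators of the macrophage TNF-alpha response to bacterial LPS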 (follow-up of hits)
Cell system: RAW264.7 G9 mouse macrophage reporter clone
Reagents: single siRNA against mouse genes, 100 nM siRNA
Time to read-out: siRNA for 2 days, then LPS about 16 h
Challenge: bacterial lipopolysaccharide (LPS), 10 ng/ml, cells fixed after overnight (about 16 h) stimulation
Detection: 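Imaged nuclear TNF reporter intensity, background removed, scaled per plate and to non-targeting control wells, as z-scores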
Scale: TNF reporter z-score, mean and TNF reporter z-score: higher = stronger Tnf promoter reporter signal; gene median z, three same-vendor siRNAs: higher = stronger Tnf reporter signal for the gene
Active means: 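An siRNA is called active when its mean z-score over replicates is at least +2 or at most -2; control wells get no call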

| target | siRNA no. | TNF reporter z-score, mean | gene median z, three same-vendor siRNAs | TNF reporter z-score, repeat 1 | TNF reporter z-score, repeat 2 | Outcome |
| --- | --- | --- | --- | --- | --- | --- |
| Krt8 (GeneID 16691) | 1 | -1.04 | -4.17 | -1.36 | -0.711 | inactive |
| Krt8 (GeneID 16691) | 2 | -4.55 | -4.17 | -3.97 | -5.13 | active |
| Krt8 (GeneID 16691) | 3 | -5.71 | -4.17 | -4.36 | -7.07 | active |
| Krt8 (GeneID 16691) | 4 | 4.17 | 1.55 | 7.61 | 0.732 | active |
| Krt8 (GeneID 16691) | 5 | 2.91 | 1.55 | 5.08 | 0.738 | active |
| Krt8 (GeneID 16691) | 6 | 1.46 | 1.55 | 2.36 | 0.552 | inactive |
| Ptpn3 (GeneID 545622) | 1 | 1.68 | -0.56 | 3.5 | -0.14 | inactive |
| Ptpn3 (GeneID 545622) | 2 | -0.0624 | -0.56 | 0.856 | -0.981 | inactive |
| Ptpn3 (GeneID 545622) | 3 | -1.94 | -0.56 | -1.47 | -2.42 | inactive |
| Ifi204 (GeneID 15951) | 1 | 8.46 | 4.5 | 6.09 | 10.8 | active |
| Ifi204 (GeneID 15951) | 2 | 2.88 | 4.5 | 0.256 | 5.51 | active |
| Ifi204 (GeneID 15951) | 3 | 1.68 | 4.5 | -0.129 | 3.49 | inactive |
| Ifi204 (GeneID 15951) | 4 | -0.656 | -1.15 | -1.66 | 0.35 | inactive |
| Ifi204 (GeneID 15951) | 5 | -1.56 | -1.15 | -2.49 | -0.63 | inactive |
| Ifi204 (GeneID 15951) | 6 | -1.28 | -1.15 | -0.622 | -1.93 | inactive |
| Tec (GeneID 21682) | 1 | -3.1 | -4.35 | -3.39 | -2.81 | active |
| Tec (GeneID 21682) | 2 | -4.35 | -4.35 | -4.17 | -4.53 | active |
| Tec (GeneID 21682) | 3 | -6.89 | -4.35 | -6.5 | -7.27 | active |
| Tec (GeneID 21682) | 4 | 2.98 | 1.29 | 5.16 | 0.801 | active |
| Tec (GeneID 21682) | 5 | 3.11 | 1.29 | 5.86 | 0.371 | active |
| Tec (GeneID 21682) | 6 | 1.2 | 1.29 | 1.79 | 0.619 | inactive |
| Washc2 (GeneID 28006) | 1 | -0.373 | -2.19 | -0.677 | -0.0692 | inactive |
| Washc2 (GeneID 28006) | 2 | -1.57 | -2.19 | 0.567 | -3.7 | inactive |
| Washc2 (GeneID 28006) | 3 | -3.73 | -2.19 | -3.76 | -3.71 | active |
| Washc2 (GeneID 28006) | 4 | 1.6 | 0.0205 | 2.93 | 0.278 | inactive |
| Washc2 (GeneID 28006) | 5 | 0.296 | 0.0205 | 0.83 | -0.237 | inactive |
| Washc2 (GeneID 28006) | 6 | -1.53 | 0.0205 | -0.264 | -2.81 | inactive |
| Atg4d (GeneID 235040) | 1 | -1.04 | -3.8 | -2.12 | 0.0524 | inactive |
| Atg4d (GeneID 235040) | 2 | -3.8 | -3.8 | -3.35 | -4.26 | active |
| Atg4d (GeneID 235040) | 3 | -4.76 | -3.8 | -5.19 | -4.33 | active |
| Atg4d (GeneID 235040) | 4 | 0.566 | -1.19 | 2.08 | -0.952 | inactive |
| Atg4d (GeneID 235040) | 5 | -0.972 | -1.19 | -0.311 | -1.63 | inactive |
| Atg4d (GeneID 235040) | 6 | -1.82 | -1.19 | -1.42 | -2.22 | inactive |
| Sftpd (GeneID 20390) | 1 | 0.731 | -2.18 | 2.11 | -0.645 | inactive |
| Sftpd (GeneID 20390) | 2 | -2.18 | -2.18 | -2.49 | -1.86 | active |
| Sftpd (GeneID 20390) | 3 | -4.95 | -2.18 | -4.96 | -4.93 | active |
| Sftpd (GeneID 20390) | 4 | 0.311 | -1.38 | 1.1 | -0.482 | inactive |
| Sftpd (GeneID 20390) | 5 | -1.7 | -1.38 | -2.29 | -1.1 | inactive |
| Sftpd (GeneID 20390) | 6 | -2.01 | -1.38 | -2.36 | -1.66 | active |
